± gives the standard error. Many entries were measured with a wide error.
B1: glmS ribozyme (parent)
chain: AUAAAAGCGCCAGAACUACAGAAAUGUAGUUGACGAGGAGGAGGUUUAUCGAAUUUUCGGCGGAUGCCUCCAAA

Variants of: B1
Assay: self-cleavage kobs at 2500 uM GlcN6P; higher = faster cleavage; RNA array
Conditions: with glucosamine-6-phosphate
How it was run: (§1)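 kobs was derived by fitting per-tile medians to one- or two-exponential decays after normalising signals to baseline and to non-cleaving reference variants. Those signals came from barcoded ribozyme variants transcribed in situ by E. coli RNA polymerase on sequenced MiSeq chips, followed through a hybridised Cy3 probe at 37 °C and imaged over ~14 h. Glucosamine-6-phosphate (40 μM to 10 mM) in HEPES/KCl/Mg(OAc)2 buffer was flowed in. Weighted Michaelis–Menten fits across concentrations then gave kcat and KM.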

Variant | self-cleavage kobs at 2500 uM GlcN6P [s⁻¹]
U31G U47G A48G | 2.66e-05 ± 2e-05
U30G A64G | 0.00281 ± 0.0015
A6C A53U C70U | 2.08e-05 ± 1.7e-05
A12C U30A U69G | 4.11e-05 ± 2.1e-05
G38C C61A C67U | 3.7e-05 ± 2.1e-05
A20U | 0.0125 ± 0.011
C16U G66C C67U | 2.92e-05 ± 2e-05
C58U C70A | 2.52e-05 ± 1.5e-05
U31A G59A A64G | 2.32e-05 ± 1.7e-05
G13A U47A U55A U65A | 2.65e-05 ± 1.5e-05
C10U G38U G63C C70U | 4.38e-05 ± 3e-05
C19A A42G | 0.0159 ± 0.012
U30G A33U | 4.34e-05 ± 2.3e-05
A6C C50G A64U | 2.94e-05 ± 2.4e-05
A14C A33U | 2.7e-05 ± 1.4e-05
C10U A33U U54C | 1.94e-05 ± 1e-05

Variant | self-cleavage kobs at 2500 uM GlcN6P [s⁻¹]
C11U C68G | 2.16e-05 ± 1.8e-05
A12C U49G A64G | 2.58e-05 ± 1.4e-05
C61G C67U | 2.45e-05 ± 1.4e-05
C16G U56C C58U | 4.25e-05 ± 2.3e-05
G13U U31G A33G G37U U69A | 2.52e-05 ± 2.3e-05
A15C A42U | 2.05e-05 ± 1.1e-05
C16G G44A | 3.51e-05 ± 2.6e-05
C16A C68A | 2.23e-05 ± 1.6e-05
C8A C16U G38A | 3.48e-05 ± 3.2e-05
C16A U47G C58A | 3.29e-05 ± 1.7e-05
C16G G41C | 2.94e-05 ± 1.5e-05
A6G C58U C61U C67U C70G | 2.67e-05 ± 2e-05
C16A C58U | 2.1e-05 ± 2.1e-05
G13U C58A C68A | 2.75e-05 ± 2e-05
G7A C68U | 3.21e-05 ± 1.8e-05

Laid out differently: entries from further up.

| Variant | self-cleavage kobs at 2500 uM GlcN6P [s⁻¹] |
| --- | --- |
| C58U C70A | 2.52e-05 ± 1.5e-05 |
| U31A G59A A64G | 2.32e-05 ± 1.7e-05 |
| G13A U47A U55A U65A | 2.65e-05 ± 1.5e-05 |
| C10U G38U G63C C70U | 4.38e-05 ± 3e-05 |

Variants of: B1
Assay: self-cleavage kobs at 640 uM GlcN6P; higher = faster cleavage; RNA array
Conditions: with glucosamine-6-phosphate
How it was run: as §1

Variant | self-cleavage kobs at 640 uM GlcN6P [s⁻¹]
U30G A64G | 0.00139 ± 0.0008
A52U C67G C70G | 2.51e-05 ± 1.8e-05
A39G G41C | 3.16e-05 ± 2.1e-05
G38C C61A C67U | 3.17e-05 ± 2.4e-05
G37A A52U U57A | 3.01e-05 ± 2e-05
C16U G66C C67U | 4.12e-05 ± 3.4e-05
C58U C70U | < 1e-05
G38A G51U C70A | 2.2e-05 ± 1.5e-05
A48G C67U | 2.84e-05 ± 1.8e-05
U49A C70G | 1.77e-05 ± 1.6e-05
G37C G59U | 1.92e-05 ± 1.9e-05
C16U G29U C67G C70U | 3.19e-05 ± 2.2e-05
C50A A53U C67U | 3.82e-05 ± 2.9e-05
G40C U56G C70U | 2.58e-05 ± 2.4e-05
A42G A52G U65G | 2.58e-05 ± 1.8e-05
C61G C67U | 2.18e-05 ± 1.8e-05
C50G C58G G62C | 3.58e-05 ± 2e-05
G59U C61G C68G | 4.42e-05 ± 3.2e-05
G29A G38C A53U C68G | 3.96e-05 ± 3.2e-05
A39U G41U U46A | 1.92e-05 ± 1e-05
A36U C67G | 2.79e-05 ± 1.7e-05
C16G C68G | 2.87e-05 ± 2.1e-05
G29U G32C | 2.72e-05 ± 1.4e-05
C16G G41U | 1.89e-05 ± 1.5e-05
C16G A52G U55G | 3.85e-05 ± 2.6e-05

Variants of: B1
Assay: self-cleavage kobs at 160 uM GlcN6P; higher = faster cleavage; RNA array
Conditions: with glucosamine-6-phosphate
How it was run: as §1

Variant | self-cleavage kobs at 160 uM GlcN6P [s⁻¹]
A14C A15U | 2.44e-05 ± 1.9e-05
G66U U69G | 2.8e-05 ± 2.8e-05
C58G C67A | 3.21e-05 ± 1.7e-05
A48C U55A | 2.46e-05 ± 2.4e-05
C58U C70A | 1.96e-05 ± 1.8e-05
C34G G38A C58A C68G | 3.28e-05 ± 2.5e-05
G35U G37C U56G | 0.00126 ± 0.0012
A12G U56G | 1.62e-05 ± 9.7e-06
A12G C70G | 2e-05 ± 1.8e-05
A12G C71G | 2.28e-05 ± 1.7e-05
A15C U31C C68G | 1.87e-05 ± 1.8e-05
C67A C70G | 1.68e-05 ± 1.6e-05
C61G C67U | 2.2e-05 ± 1.4e-05
U30A G41U | 2.29e-05 ± 1.5e-05
A12C C70A | 2.38e-05 ± 2.2e-05
G66C C71G | 2.19e-05 ± 1.9e-05
U45A C67G | 4.11e-05 ± 2.1e-05
U31A C67G | 4.89e-05 ± 2.8e-05
A6C A14G | 3.52e-05 ± 2.9e-05
C10G U54A C58G G62C C67G | 4.94e-05 ± 2.9e-05
G37A G66U | 2.22e-05 ± 1.5e-05
U31G U45A A52G | 2.31e-05 ± 1.8e-05
C50A C70U | 1.63e-05 ± 1.2e-05
A12U C67U | 0.00118 ± 0.00093
U30C U56A | 1.91e-05 ± 1.1e-05

Variants of: B1
Assay: self-cleavage kobs at 10000 uM GlcN6P; higher = faster cleavage; RNA array
Conditions: with glucosamine-6-phosphate
How it was run: as §1

Variant | self-cleavage kobs at 10000 uM GlcN6P [s⁻¹]
A20U | 0.123 ± 0.11
C16U G66C C67U | 3.66e-05 ± 2.1e-05
C19A A42G | 0.00879 ± 0.0049
U30G A33U | 1.89e-05 ± 1.7e-05
A48G C67U | 2.16e-05 ± 1.2e-05
C16G U56C C58U | 1.92e-05 ± 1.4e-05
A15C A42U | 1.14e-05 ± 1.1e-05
C16G G44A | 2.55e-05 ± 1.6e-05
C16G G41C | 2.07e-05 ± 1.7e-05
G7A C68U | 1.72e-05 ± 1.4e-05

From the supplement of paper PMC7125110
